PubChem BioAssay AID1053208, Peter MacCallum Cancer Centre | 2014
Aim: 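Find knock-downs that sensitise mouse osteosarcoma cells to doxorubicin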 (primary screen). System: mouse osteosarcoma cells, early-passage culture from an engineered mouse model of fibroblastic bone tumour. Reagents: siRNA pool against mouse genes, 40 nM. Duration: about 120 h (48 h before drug, then 72 h with drug). Treatment: doxorubicin 100 nM for 72 h, roughly 30-40% inhibitory dose. Read-out: 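Viability read as ATP luminescence after 72 h of 100 nM doxorubicin or none, duplicate wells averaged, scaled to non-targeting siRNA, then expressed as robust z-scores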. Direction: viability z-score with doxorubicin: higher = more viable cells under doxorubicin; viability z-score without drug: higher = more viable cells with knock-down alone. Call rule: 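a pool counts as active when its viability z-score with doxorubicin is -2 or below and its z-score without drug lies between -2 and 2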.
This is one part, drawn at random, of about 17,000 reagents tested. 788 of all reagents (4.7%) count as active. 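Calls rest on z-score classes alone; an extra cut-off of viability at most 70% of control was not applied to them.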 A number with no mark means an inactive call. Not all columns of the deposit are shown.

gene symbol	combined z-score class	viability z-score with doxorubicin	viability z-score without drug
PLEKHK1	no change with or without drug	0	0
Rpl28 (ribosomal protein L28)	no change with or without drug	-1.35	0.51
Dbn1 (drebrin 1)	no change with or without drug	-0.11	1.52
Anks3 (ankyrin repeat and sterile alpha motif domain containing 3)	no change with or without drug	0.67	0.17
Atp9a (ATPase, class II, type 9A)	no change with or without drug	-0.22	0.51
Rapsn (receptor-associated protein of the synapse)	no change with or without drug	0.67	0.17
Ccdc42 (coiled-coil domain containing 42)	no change with or without drug	0.11	0.17
Msn (moesin)	no change with or without drug	0.45	-1.18
Tk1 (thymidine kinase 1)	no change with or without drug	-0.45	-0.84

The list goes on (2 carried over from the part before).
gene symbol	combined z-score class	viability z-score with doxorubicin	viability z-score without drug
Msn (moesin)	no change with or without drug	0.45	-1.18
Tk1 (thymidine kinase 1)	no change with or without drug	-0.45	-0.84
Tbc1d14 (TBC1 domain family, member 14)	no change with or without drug	1.57	0.17
Rps16 (ribosomal protein S16)	low cell count with and without drug	-5.17	-5.56
Ercc6l	no change with or without drug	-1.8	-1.01
Tsr2 (TSR2 20S rRNA accumulation)	no change with or without drug	-0.11	0.84
Fth1 (ferritin heavy polypeptide 1)	no change with or without drug	-0.9	-0.17
Kcnh1	no change with or without drug	-0.34	1.01
St14 (suppression of tumorigenicity 14 (colon carcinoma))	no change with or without drug	-1.57	-1.18
Qprt (quinolinate phosphoribosyltransferase)	no change with or without drug	0	0
Dlk2 (delta like non-canonical Notch ligand 2)	low cell count with doxorubicin only (active)	-2.25	-1.35
Fbxw19 (F-box and WD-40 domain protein 19)	no change with or without drug	-0.56	0.51
Kctd18 (potassium channel tetramerisation domain containing 18)	no change with or without drug	-1.8	0.17
